Reference: paper PMC10920779, “Targeting P2Y14R protects against necroptosis of intestinal epithelial cells through PKA/CREB/RIPK1 axis in ulcerative colitis” (Nature Communications, 2024)
These are yes or no findings as the source states them, for the method shown. Binding seen in cells or lysates may run through a third protein. Some binding calls cover weakened binding; strength is not graded here.

Chains of the proteins cited; added tags and fusions are not shown.
UniProt Q13546: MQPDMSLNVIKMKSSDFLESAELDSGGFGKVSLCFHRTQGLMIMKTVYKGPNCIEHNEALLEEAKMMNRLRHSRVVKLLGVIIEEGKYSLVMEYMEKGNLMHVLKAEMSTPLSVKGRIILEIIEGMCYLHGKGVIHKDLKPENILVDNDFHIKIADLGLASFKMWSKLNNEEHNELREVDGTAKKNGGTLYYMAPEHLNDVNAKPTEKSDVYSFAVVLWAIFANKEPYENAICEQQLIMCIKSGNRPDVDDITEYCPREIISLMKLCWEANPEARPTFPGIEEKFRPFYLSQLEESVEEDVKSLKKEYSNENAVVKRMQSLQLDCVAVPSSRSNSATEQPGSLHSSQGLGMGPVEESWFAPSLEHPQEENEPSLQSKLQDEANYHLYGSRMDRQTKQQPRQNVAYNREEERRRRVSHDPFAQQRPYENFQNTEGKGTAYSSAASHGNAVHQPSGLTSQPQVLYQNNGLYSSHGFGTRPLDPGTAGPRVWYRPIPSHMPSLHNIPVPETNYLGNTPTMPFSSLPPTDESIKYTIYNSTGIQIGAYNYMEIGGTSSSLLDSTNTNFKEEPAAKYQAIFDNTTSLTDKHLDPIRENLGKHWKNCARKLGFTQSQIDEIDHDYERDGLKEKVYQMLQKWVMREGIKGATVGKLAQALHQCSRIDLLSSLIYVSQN
UniProt Q9Y572: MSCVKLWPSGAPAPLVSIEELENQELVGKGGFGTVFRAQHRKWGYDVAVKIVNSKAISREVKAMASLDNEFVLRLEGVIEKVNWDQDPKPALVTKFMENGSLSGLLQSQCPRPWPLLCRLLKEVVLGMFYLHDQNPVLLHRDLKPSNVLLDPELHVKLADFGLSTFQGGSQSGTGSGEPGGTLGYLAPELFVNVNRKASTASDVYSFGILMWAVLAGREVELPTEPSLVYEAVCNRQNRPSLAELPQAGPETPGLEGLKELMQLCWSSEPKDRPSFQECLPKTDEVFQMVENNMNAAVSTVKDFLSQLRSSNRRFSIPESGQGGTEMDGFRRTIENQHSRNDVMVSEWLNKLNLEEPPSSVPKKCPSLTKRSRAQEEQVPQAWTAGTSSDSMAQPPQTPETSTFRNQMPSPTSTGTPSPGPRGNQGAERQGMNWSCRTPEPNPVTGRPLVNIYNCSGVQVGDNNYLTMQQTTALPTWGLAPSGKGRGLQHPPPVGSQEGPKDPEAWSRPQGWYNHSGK

Target: receptor-interacting protein kinase 1 (UniProt Q13546)
Assay: co-IP; cell lysate; anti-RIPK1 antibody (1:200) or control IgG with protein A/G agarose beads, 4 °C overnight, washed 3 times in lysis buffer, then immunoblotting; cells with or without silencing of P2Y14R

binding: binds
Substance: receptor-interacting protein kinase 3 (from UniProt Q9Y572 1-518)
